The results in this text go back to PMC10942606.

These are yes or no findings as the source states them, for the method shown.

Experiment [1] deals with Pcf1_KER (56-170) (S. pombe) (UniProt Q1MTN9). Put plainly: SEC-SAXS.
The target in experiment [2] is T1, Pcf2 (medium subunit of SpCAF-1) (S. pombe) (UniProt O13985).
T1 sequence: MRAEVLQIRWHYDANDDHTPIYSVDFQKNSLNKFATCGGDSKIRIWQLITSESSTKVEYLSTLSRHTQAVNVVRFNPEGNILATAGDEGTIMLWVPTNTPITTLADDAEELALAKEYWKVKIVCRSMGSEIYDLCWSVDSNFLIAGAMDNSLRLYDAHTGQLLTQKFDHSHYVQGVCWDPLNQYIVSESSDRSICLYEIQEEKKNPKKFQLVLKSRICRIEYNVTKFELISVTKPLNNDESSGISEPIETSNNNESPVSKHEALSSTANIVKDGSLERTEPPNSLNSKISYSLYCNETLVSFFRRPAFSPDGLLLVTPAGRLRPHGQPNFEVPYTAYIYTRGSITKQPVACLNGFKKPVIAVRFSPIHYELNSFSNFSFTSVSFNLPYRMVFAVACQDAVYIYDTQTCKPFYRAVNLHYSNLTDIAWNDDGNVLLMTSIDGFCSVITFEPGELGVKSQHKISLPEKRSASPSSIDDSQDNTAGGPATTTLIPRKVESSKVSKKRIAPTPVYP
Nature of the experiment: SEC.

The target of experiment [3] is Pcf3 (small subunit of SpCAF-1) (S. pombe) (UniProt Q9Y825). Nature of the experiment: SEC.

B1: Pcf1_KER (56-170) (domain or fragment, UniProt Q1MTN9 56-170)
chain: KLSYEGNRKKRIYNGSAEAGKEKKLQKQRAQEERIRQKEAERLKREKERQQREQEKKLREQEKIAAKKMKELEKLEKERIRLQEQQRRKEERDQKLREKEEAQRLRQEQILNKER
As to B1, in experiment [1], the binding entry is listed as “no binding”.

B2: Pcf3 (small subunit of SpCAF-1) (protein, UniProt Q9Y825 1-408)
chain: MNTELDMQNFEHIKFLENQISEDHFRWKKNSKHLYNLLITRTLTWPSLSIQWLSAMESITEKAVLKNRLLLGTHAAEGMPNFLQLADLDLPDFNQTILDPVKHYNEDTGELGGYSMQHSCKFQISQRILHNGDVNRVRHMPQNPNIIATMSSCGNAYIFDRTKYTSMPAEEFLPNISLIGHKKEGFGLSWNRQQNCRLVTAANDSKILEWDLNNFSRDTRCLTPVKDFHYDDSPVNDVEYHPHHTNLYIAVNDNGIAFICDNRLQQTCSKTVKASNPLFSVRHNPSIATLFALGSEQDLQLWDLRNLNKSVFNTSEDLSDNRLKVPSRLTLGGTSLSWSWRHSGRIVSACQEYCYVWNFNKANPLEFVHAGHKGTVNEVDFDPFEAQCIASVADDNELHIWKPNVIVN
As for B2, the binding entry in experiment [2] and in experiment [3] was “no binding” throughout.

B3: Pcf2 (medium subunit of SpCAF-1) (protein, UniProt O13985 1-512)
chain: MRAEVLQIRWHYDANDDHTPIYSVDFQKNSLNKFATCGGDSKIRIWQLITSESSTKVEYLSTLSRHTQAVNVVRFNPEGNILATAGDEGTIMLWVPTNTPITTLADDAEELALAKEYWKVKIVCRSMGSEIYDLCWSVDSNFLIAGAMDNSLRLYDAHTGQLLTQKFDHSHYVQGVCWDPLNQYIVSESSDRSICLYEIQEEKKNPKKFQLVLKSRICRIEYNVTKFELISVTKPLNNDESSGISEPIETSNNNESPVSKHEALSSTANIVKDGSLERTEPPNSLNSKISYSLYCNETLVSFFRRPAFSPDGLLLVTPAGRLRPHGQPNFEVPYTAYIYTRGSITKQPVACLNGFKKPVIAVRFSPIHYELNSFSNFSFTSVSFNLPYRMVFAVACQDAVYIYDTQTCKPFYRAVNLHYSNLTDIAWNDDGNVLLMTSIDGFCSVITFEPGELGVKSQHKISLPEKRSASPSSIDDSQDNTAGGPATTTLIPRKVESSKVSKKRIAPTPVYP
As for B3, in experiment [2], the binding entry is reported as “no binding”.
